Source: PubChem BioAssay AID1053208 (Peter MacCallum Cancer Centre, 2014)
Aim: 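Synthetic lethal interactions between gene loss and doxorubicin in osteosarcoma cells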 (primary screen). Cell system: mouse osteosarcoma cells, early-passage culture from an engineered mouse model of fibroblastic bone tumour. Reagents: siRNA pool against mouse genes, 40 nM. Time to read-out: about 120 h (48 h before drug, then 72 h with drug). Treatment: doxorubicin 100 nM for 72 h, roughly 30-40% inhibitory dose. Measurement: 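Viability read as ATP luminescence after 72 h of 100 nM doxorubicin or none, duplicate wells averaged, scaled to non-targeting siRNA, then expressed as robust z-scores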. Reading the numbers: viability z-score with doxorubicin: higher = more viable cells under doxorubicin; viability z-score without drug: higher = more viable cells with knock-down alone. Active means: 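a pool counts as active when its viability z-score with doxorubicin is -2 or below and its z-score without drug lies between -2 and 2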.
The whole screen tested about 17,000 reagents; shown is a part drawn at random. Over the whole deposit, 788 (4.7%) were called active. 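Calls rest on z-score classes alone; an extra cut-off of viability at most 70% of control was not applied to them.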 Unmarked entries are inactive. The numbers tell different reagents against one gene apart. Further read-outs or replicates are left out here.

The first 4 entries, ahead of the listing:
Rmi1: combined z-score class = no change with or without drug; viability z-score with doxorubicin = -0.9; viability z-score without drug = -0.51
Dpm1: combined z-score class = no change with or without drug; viability z-score with doxorubicin = 0.34; viability z-score without drug = -0.17
Cep95: combined z-score class = no change with or without drug; viability z-score with doxorubicin = 0.22; viability z-score without drug = 0.84
Hcar1: combined z-score class = no change with or without drug; viability z-score with doxorubicin = -1.8; viability z-score without drug = -0.51

Main list, repeating the preview:
Rmi1: combined z-score class = no change with or without drug; viability z-score with doxorubicin = -0.9; viability z-score without drug = -0.51
Dpm1: combined z-score class = no change with or without drug; viability z-score with doxorubicin = 0.34; viability z-score without drug = -0.17
Cep95: combined z-score class = no change with or without drug; viability z-score with doxorubicin = 0.22; viability z-score without drug = 0.84
Hcar1: combined z-score class = no change with or without drug; viability z-score with doxorubicin = -1.8; viability z-score without drug = -0.51
Pla2g2d: combined z-score class = no change with or without drug; viability z-score with doxorubicin = 1.35; viability z-score without drug = 0.17
Dpp8: combined z-score class = no change with or without drug; viability z-score with doxorubicin = 0.22; viability z-score without drug = 0.84
Sirt7: combined z-score class = no change with or without drug; viability z-score with doxorubicin = 0; viability z-score without drug = -0.17
Cdk5r1: combined z-score class = no change with or without drug; viability z-score with doxorubicin = 1.12; viability z-score without drug = 0.67
Rab10: combined z-score class = no change with or without drug; viability z-score with doxorubicin = -0.34; viability z-score without drug = 1.18
Or5p5: combined z-score class = no change with or without drug; viability z-score with doxorubicin = -1.35; viability z-score without drug = -0.51
Gpr137: combined z-score class = no change with or without drug; viability z-score with doxorubicin = -1.46; viability z-score without drug = -1.69
Bhlhe41: combined z-score class = low cell count without drug only; viability z-score with doxorubicin = 0.79; viability z-score without drug = -2.19
Dph2: combined z-score class = no change with or without drug; viability z-score with doxorubicin = 1.12; viability z-score without drug = 0.51
Ssty2: combined z-score class = high cell count with and without drug; viability z-score with doxorubicin = 2.59; viability z-score without drug = 2.19
Lysmd2: combined z-score class = no change with or without drug; viability z-score with doxorubicin = 0.45; viability z-score without drug = -0.17
Prmt6: combined z-score class = no change with or without drug; viability z-score with doxorubicin = -1.12; viability z-score without drug = 0.67
Ikzf4 #1: combined z-score class = high cell count with and without drug; viability z-score with doxorubicin = 4.16; viability z-score without drug = 2.36
Ikzf4 #2: combined z-score class = no change with or without drug; viability z-score with doxorubicin = 0; viability z-score without drug = 0.51
Trp53bp2: combined z-score class = no change with or without drug; viability z-score with doxorubicin = -0.79; viability z-score without drug = 1.52
Rab24: combined z-score class = no change with or without drug; viability z-score with doxorubicin = -0.11; viability z-score without drug = 0.67
Ptk2b: combined z-score class = no change with or without drug; viability z-score with doxorubicin = -0.67; viability z-score without drug = -1.18
Cdk12: combined z-score class = low cell count with and without drug; viability z-score with doxorubicin = -2.25; viability z-score without drug = -2.36
Uevld: combined z-score class = no change with or without drug; viability z-score with doxorubicin = 0; viability z-score without drug = 0.17
Smpdl3a: combined z-score class = no change with or without drug; viability z-score with doxorubicin = 0.45; viability z-score without drug = -0.17
Gsta1: combined z-score class = no change with or without drug; viability z-score with doxorubicin = -1.8; viability z-score without drug = 0.51
Zfp13: combined z-score class = low cell count with doxorubicin only (active); viability z-score with doxorubicin = -2.92; viability z-score without drug = -1.01
Elk4: combined z-score class = no change with or without drug; viability z-score with doxorubicin = -0.9; viability z-score without drug = 0.17
Rcor3: combined z-score class = low cell count with doxorubicin only (active); viability z-score with doxorubicin = -3.04; viability z-score without drug = -1.18
Or2n1d: combined z-score class = no change with or without drug; viability z-score with doxorubicin = 0; viability z-score without drug = -0.51
Ndufaf5: combined z-score class = no change with or without drug; viability z-score with doxorubicin = 0.22; viability z-score without drug = 1.18
4930449I24Rik: combined z-score class = high without drug; low with doxorubicin; viability z-score with doxorubicin = -2.02; viability z-score without drug = 2.19
Rybp: combined z-score class = no change with or without drug; viability z-score with doxorubicin = -0.9; viability z-score without drug = 0.51
Thap3: combined z-score class = no change with or without drug; viability z-score with doxorubicin = -1.8; viability z-score without drug = -0.67
Zmym5: combined z-score class = no change with or without drug; viability z-score with doxorubicin = 0.45; viability z-score without drug = 1.35
Gpn2: combined z-score class = no change with or without drug; viability z-score with doxorubicin = -0.9; viability z-score without drug = 1.18
Shb: combined z-score class = no change with or without drug; viability z-score with doxorubicin = -0.67; viability z-score without drug = -1.52
